Values of other authors, collected in patent publication US9101604B2, “Compositions for the treatment of disorders of the upper respiratory tract and influenza syndromes” (priority 2008, dated 2015).
At least one compound was matched to its structure with a doubt left.

System: HUVECs
Settings: in vitro, dose-dependent

C[n+]1cc2c3c(ccc2c2ccc4cc5c(cc4c21)OCO5)OCO3 [sanguinarine]
suppression of inducement of cell migration, sprouting and cell survival: markedly suppresses
